Measured values from patent US20090300848A1, “EPOXIDE-BASED TANNAGE SYSTEM” (BLC LEATHER TECHNOLOGY CENTRE LTD, priority 2006, published 2009).

Columns and labels:
[1] = residual, unfixed dye (Napthol blue black) at penetration and fixation stages
[2] = test system: skin collagen; experiment: hydrothermal stability, shrinkage temperature (Ts) of tanned leather by modified DSC
[3] = dye concentration 0.25 % wt, pH 5
[4] = dye concentration 0.5 % wt, pH 5
[5] = air dried leather without any post tannage treatment

| SMILES | residual, unfixed dye [1, 3] [%] | residual, unfixed dye ([1]; dye concentration 0.25 % wt, pH 8) [%] | residual, unfixed dye [1, 4] [%] | residual, unfixed dye ([1]; dye concentration 0.5 % wt, pH 8) [%] | Ts [2, 5] [°C] | Ts ([2]; pH 9.2, 5% offer) [°C] | Ts ([2]; pH 9.2, about 10% offer, maximum effect) | residual, unfixed dye ([1]; dye concentration 0.25 % wt, pH 7) [%] | residual, unfixed dye ([1]; dye concentration 0.5 % wt, pH 7) [%] |
| --- | --- | --- | --- | --- | --- | --- | --- | --- | --- |
| O=c1n(CC2CO2)c(=O)n(CC2CO2)c(=O)n1CC1CO1 (stereo not drawn) [TGIC, trigycidyl isocyanurate] | 0.7 | 3.3 | 1.0 | 4.9 | 85 | 80 | greater than 85 °C |  |  |
| O=CCCCC=O [GA, glutaraldehyde, reference compound] | 1.4 |  | 1.5 |  | 78 |  |  | 6.4 | 11.6 |
